Source: patent publication EP4589010A1, “SCREENING METHOD FOR OFFENSIVE ODOR SUPPRESSING MATERIAL” (priority 2022, dated 2024)
Some of these results come from one statement about several compounds together.

Key:
Experiment in all cases: Luciferase assay, suppression of the olfactory receptor response to hexanal
Format in all cases: cell-based, human
[1] = tested on: olfactory receptor OR2C1; details: 10 µL of 3 mM suppressing material in 7 mM hexanal solution added per well; fold increase over time; Figure 7
[2] = tested on: olfactory receptor OR5K1; details: 10 µL of 3 mM suppressing material in 7 mM hexanal solution added per well; fold increase over time; Figure 10
[3] = tested on: olfactory receptor OR5P3; details: 10 µL of 3 mM suppressing material in 7 mM hexanal solution added per well; fold increase over time; Figure 11
[4] = tested on: olfactory receptor OR2J2; details: 10 µL of 3 mM suppressing material in 7 mM hexanal solution added per well; fold increase over time; Figure 8
[5] = tested on: olfactory receptor OR2J3; details: 10 µL of 3 mM suppressing material in 7 mM hexanal solution added per well; fold increase over time; Figure 9

C=C1CCC2OC2(C)CCC2C1CC2(C)C (stereo not drawn) [beta-caryophyllene oxide]
suppression of the response of the olfactory receptor OR2C1 to hexanal [1]: showed the effects in suppressing the responses
suppression of the response of the olfactory receptor OR5K1 to hexanal [2]: showed the effects in suppressing the responses

CC1CCC(C(C)C)C(OC(=O)C(C)O)C1 (centres unmarked) [menthyl lactate]
suppression of the response of the olfactory receptor OR5P3 to hexanal [3]: showed the effects in suppressing the responses
suppression of the response of the olfactory receptor OR2J2 to hexanal [4]: showed the effects in suppressing the responses

C=C(C)[C@@H]1CCC2=CC(=O)C[C@@H](C)[C@]2(C)C1 [nootkatone]
suppression of the response of the olfactory receptor OR2J3 to hexanal [5]: showed the effects in suppressing the responses
